# Measurements as given in PMC5896247.
# By UniProt entry, the sequences of proteins in these tests, tags left out. Residues count along the entry.
# UniProt P25942, residues 21-277: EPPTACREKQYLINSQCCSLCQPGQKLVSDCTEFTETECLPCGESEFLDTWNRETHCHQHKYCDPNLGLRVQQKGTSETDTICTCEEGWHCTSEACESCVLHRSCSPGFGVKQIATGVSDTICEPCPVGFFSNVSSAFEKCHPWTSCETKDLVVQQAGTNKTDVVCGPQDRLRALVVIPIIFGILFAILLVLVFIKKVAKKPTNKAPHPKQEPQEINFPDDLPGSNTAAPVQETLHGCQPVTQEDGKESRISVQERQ
# UniProt P27548, residues 112-260: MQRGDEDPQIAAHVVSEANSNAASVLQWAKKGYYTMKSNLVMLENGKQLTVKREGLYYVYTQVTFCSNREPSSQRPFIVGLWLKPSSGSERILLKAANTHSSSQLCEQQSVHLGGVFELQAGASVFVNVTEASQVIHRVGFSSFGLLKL
# These are yes or no findings as the source states them, for the method shown. Some results given as binding are weak or reduced against the parent protein; the word gives no strength.
# Target: human CD40 on human CD40 transgenic (hCD40Tg) mouse B cells (human) (UniProt P25942)
# Test: flow cytometry on cells; purified hCD40Tg mouse splenic B cells incubated with or without mAb (m1 isotype), then hexameric mCD40L-h1Fc; bound CD40L detected with anti-human-FITC; only the binder purified
substance,measurement,value
hexameric mCD40L-h1Fc (from UniProt P27548 112-260) (Fc fusion),binding,binds
